Results as given in patent US7645740B2, “Peptide sequence found in Laminin 5 for treating skin impairments” (Laboratoires d'Anjou Centre National de la Recherche …, priority 2004, dated 2010).

Experiment: Quantity of peptide immobilized on 96-well plates by amino acid analysis
Experimental: The peptide was diluted in sterile PBS. Samples containing the peptide to be assayed were lyophilized by evaporation. They were deposited in a reactor and placed under vacuum in order to eliminate oxygen likely to oxidize certain amino acids. Hydrolysis of the peptide bonds was carried out in a hydrochloric acid mixture (HCL 6N, ⅔), trifluoroacetic acid (TFA, ⅓) at 150° C. for 45 minutes. Gas hydrolysis prevented contamination by ions present in the acids. The samples were then dried and dissolved in a suitable buffer for ion-exchange chromatography (sodium citrate). Ion-exchange chromatography makes it possible to separate amino acids according to their ionic strength and, on leaving the column, they react with a reagent (ninhydrin) to form a dyed complex with primary amines (violet, readable at 570 nm). Ninhydrin also reacts with secondary amines (proline, hydroxyproline) to form a yellow compound that can be read at 440 nm. Two separate chromatograms allow the samples to be analysed.
A semi-automatic Beckman 6300 analyser optimised for this analysis was used along with Beckman Gold software in order to quantify the chromatograms. The results were transferred to an MS-Excel table with a macro to enable calculation of relative compositions.
The cell adhesion experiments conducted with the peptide require a preliminary step to immobilize the peptide on 96-well plates. […] The solutions were then removed by aspiration and the peptide is immobilized on the surface, ready to interact with cells added during the cell adhesion test itself. […]
FIG. 17 gives the data obtained in the experiments aimed at identifying the assay conditions for the peptide deposited in 96-well plates and not immobilized. Five experiments were carried out with decreasing quantities of peptide, from 5 μg to 0.7 μg. For each condition, a given quantity of peptide was deposited in 3 different wells (100 μg/well) on a 96-well plate. […] This further signifies that the difference between starting quantity and supernatant quantity was too low to be detected and was certainly within the deviation range from the assay mean for the starting solution. The experiment was therefore repeated with lower quantities of peptide deposited in the wells: 3.55 μg, 2.56 μg, 1.23 μg and 0.73 μg. These quantities of peptide were sufficient to carry out the experiment since we obtained equivalent results for these four conditions. The quantity of peptide remaining in the supernatant after immobilization is approximately 90% of the quantity of peptide added.
A second step involved using two different peptide quantities (Q1 and Q2) to carry out the assay on a larger number of samples (FIG. 18). […] Five different wells on the 96-well plate received quantity Q1 (volume 100 μl) and five other well received quantity Q2 (volume 100 μl). […]

## TALRIRATYGEY (Human laminin 5) [Peptide 1]
Q1, 2.44 μg
  peptide immobilized: 9.3%
  peptide remained in solution after immobilization: 90.7%
Q2, 1.09 μg
  peptide quantity not immobilized: 92%
Q2, mean starting quantity 1.09 μg, five supernatants, 18 hours at +4° C.
  mean quantity in the supernatants after immobilization: 1.002 µg
